The record followed here is PubChem BioAssay AID252 (DTP/NCI, 2004).

The list is a part of this screen's results and no random one: its compounds were picked by chemical class. Other doses and runs of a compound may be missing. T/C is the treated group as % of the vehicle group. For survival time, the PubChem record calls one and a half times the control and up active, and a quarter to a half above the control has no call in these data; cut-offs in other NCI protocols can differ. Some entries show no survivor count and are marked so; the dose need not have been tolerated. Schedules are NCI's codes, taken here to give the interval after Q, in days (D) or hours (H), and the number of doses after X.

This assay relates to BDF1 mice, intracerebral L1210 leukemia, survival T/C. The assay can be described thus: NCI In Vivo Anticancer Drug Screen. Data for tumor model L1210 Leukemia (intracerebral) in B6D2F1 (BDF1) mice. To be noted: T/C endpoint: mean survival time, schedule: Q01DX001 (ip), vehicle: saline, higher T/C = longer survival. The procedure: The antitumor activity of compounds was measured in mice bearing transplantable tumors. Survival or tumor size were measured and the results are expressed as the measurement made in the treated group (T) divided by the measurement made in the vehicle treated control group (C). The tumor model used in this assay is L1210 Leukemia (intracerebral) in B6D2F1 (BDF1) mice

As to `ClCCNCCCNCCCl`, the T/C reads like this: (dose: 50.0 mg/kg/injection) 107 % of control [survivor count not shown]; (dose: 100.0 mg/kg/injection) 114 % of control [survivor count not shown]; (dose: 200.0 mg/kg/injection) 100 % of control [survivor count not shown].
